Measurements reported in PubChem BioAssay AID1159578 (Peter MacCallum Cancer Centre, 2015).
Here is a random part of about 18,000 deposited reagents. About 1,030 of all reagents (5.7%) count as active. 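Inactive calls also include pools with fewer than 3300 nuclei, whose migration was not assessed.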 Raw values are not corrected between plates. A number with no mark means an inactive call.

Test: 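Genome-wide hunt for genes controlling movement of lymphatic endothelial cells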 (primary screen)
System: human lymphatic endothelial cells
Reagents: siRNA pool against human genes, 40 nM
Duration: 48 h after transfection
Measured: 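Cells stained with dye and imaged after a scratch; covered wound area and nuclei counted, duplicates averaged, migration set against mock wells and turned into a robust z-score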
Scale: migration robust z-score: higher = faster migration into the scratch; migration relative to mock: higher = more scratch area covered than mock; nuclei per well: higher = more cells in the well
Active means: 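Migration changed when robust z exceeds 2 or falls below -2 and mean nuclei number is at least 3300; otherwise not called changed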
Calls: active = migration changed; inactive = no migration change, or too few cells

Gene,migration robust z-score,migration class with cell-count check,migration relative to mock,"nuclei per well, duplicate mean"
POLR3C,-1.22,migration z between -2 and 2; enough cells,0.57,5047
ZNF684,-2.15 (active),migration z below -2; enough cells,0.33,4928
IFITM5,-1.54,migration z between -2 and 2; enough cells,0.49,6595
ABI3,2.17 (active),migration z above 2; enough cells,1.45,6132
STRN3,0.26,migration z between -2 and 2; enough cells,0.95,5998
OAZ1,-0.78,migration z between -2 and 2; enough cells,0.66,5982
TMEM161A,-0.42,migration z between -2 and 2; enough cells,0.78,8972
SLC34A3,0.21,migration z between -2 and 2; enough cells,0.84,6209
ANKHD1-EIF4EBP3,-0.03,migration z between -2 and 2; enough cells,0.88,5294
KRTAP10-2,-2.23 (active),migration z below -2; enough cells,0.31,6116
CACNA1G,-0.26,migration z between -2 and 2; enough cells,0.76,5248
LY96,1.35,migration z between -2 and 2; enough cells,1.23,6218
DNAI2,0.56,migration z between -2 and 2; enough cells,1.03,6276
RAB7B,1.06,migration z between -2 and 2; enough cells,1.16,6674
OR5B21,-1.03,migration z between -2 and 2; enough cells,0.62,5590
RAB3IL1,-1.47,migration z between -2 and 2; enough cells,0.5,5741
CYFIP1,0.04,migration z between -2 and 2; enough cells,0.89,5000
FSTL3,1.22,migration z between -2 and 2; enough cells,1.04,5074
E2F1,-0.13,migration z between -2 and 2; enough cells,0.78,6220
IGHMBP2,0.16,migration z between -2 and 2; enough cells,0.84,4357
KBTBD8,0.98,migration z between -2 and 2; enough cells,1.15,5788
KRTAP5-11,-0.24,migration z between -2 and 2; enough cells,0.82,5548
MTURN,-0.73,migration z between -2 and 2; enough cells,0.7,5808
RNASE4,0.47,migration z between -2 and 2; enough cells,0.9,3850
STPG4,-0.68,migration z between -2 and 2; enough cells,0.7,5177
ZNF227,0.18,migration z between -2 and 2; enough cells,0.93,5319
SCARF2,1.56,migration z between -2 and 2; enough cells,1.1,5999
WDR27,0.68,migration z between -2 and 2; enough cells,1.06,4968
ITSN2,-0.97,migration z between -2 and 2; enough cells,0.64,4950
AAK1,0.2,migration z between -2 and 2; enough cells,0.84,4564
ANXA5,-0.18,migration z between -2 and 2; enough cells,0.84,5486
NEDD4L,0.42,migration z between -2 and 2; enough cells,0.88,4242
OR4C6,0.01,migration z between -2 and 2; enough cells,0.89,4285
DCLRE1B,0.17,migration z between -2 and 2; enough cells,0.93,6069
GPR153,-1.06,migration z between -2 and 2; enough cells,0.6,4918
CCKAR,1.38,migration z between -2 and 2; enough cells,1.07,4537
KRT76,0.19,migration z between -2 and 2; enough cells,0.94,5276
NTSR1,-1.14,migration z between -2 and 2; enough cells,0.58,4883
CLPX,1.06,migration z between -2 and 2; enough cells,1.01,5084
CPEB1,-1.25,migration z between -2 and 2; enough cells,0.56,5963
SESTD1,1.31,migration z between -2 and 2; enough cells,1.23,5682
SYPL1,1,migration z between -2 and 2; enough cells,1.14,5872
PPARGC1B,0.02,migration z between -2 and 2; enough cells,0.89,4988
RAB18,-0.36,migration z between -2 and 2; enough cells,0.74,5626
OCEL1,-0.62,migration z between -2 and 2; enough cells,0.73,6004
ZUP1,0.18,migration z between -2 and 2; enough cells,0.93,5672
CNGB1,-1.34,migration z between -2 and 2; enough cells,0.55,6022
DEFB132,1.23,migration z between -2 and 2; enough cells,1.2,6110
APOA4,-1.74,migration z between -2 and 2; enough cells,0.47,5537
BARX1,-0.91,migration z between -2 and 2; enough cells,0.63,3610
DYNLL1,0.91,migration z between -2 and 2; enough cells,0.98,5543
MDN1,-1.38,migration z between -2 and 2; enough cells,0.54,5536
UBE2M,-0.16,migration z between -2 and 2; enough cells,0.77,5330
HOXA6,-0.6,migration z between -2 and 2; enough cells,0.73,4590
PPP1R42,-1.05,migration z between -2 and 2; enough cells,0.62,6768
CSN1S1,-0.82,migration z between -2 and 2; enough cells,0.68,5444
DNAJC30,-1.21,migration z between -2 and 2; enough cells,0.57,5758
